Assay results from patent publication US20260042850A1.
Results are given in words; binding and its absence hold for the method and conditions named. Some results given as binding are weak or reduced against the parent protein; the word gives no strength.

Tests used:
[1] = biological target: human C-MET His tagged, monomeric (human) (UniProt P08581); experiment: Alphascreen epitope competition in solution: varied IgG4(S228P) against 224G11 IgG4(S228P) binding to biotinylated human C-MET, CPS
[2] = biological target: human C-MET human Fc tagged recombinant protein (human) (UniProt P08581); experiment: direct titration ELISA on coated human C-MET-Fc, IgG4(S228P), Abs 450 nm
[3] = biological target: cynomolgus monkey C-MET human Fc tagged recombinant protein (cynomolgus monkey); experiment: direct titration ELISA on C-MET-Fc
[4] = biological target: human C-MET human Fc tagged recombinant protein (human) (UniProt P08581); experiment: direct titration ELISA on C-MET-Fc
[5] = biological target: human C-MET on stably transfected CHO-K1 cells (human) (UniProt P08581); experiment: flow cytometry, C-MET CHO-K1 cells
[6] = biological target: cynomolgus monkey C-MET on stably transfected CHO-K1 cells (cynomolgus monkey); experiment: flow cytometry, C-MET CHO-K1 cells
[7] = biological target: human C-MET His tagged, monomeric (human) (UniProt P08581); experiment: SPR Biacore
[8] = biological target: cynomolgus monkey C-MET human Fc tagged recombinant protein (cynomolgus monkey); experiment: direct titration ELISA on coated cyno C-MET-Fc, IgG4(S228P), Abs 450 nm

- binding [1]: binds
- binding [2]: binds
- binding [3]: binds
- binding [4]: binds
- binding [5]: binds
- binding [6]: binds
- binding [7]: binds
- binding [8]: binds
B1: 04E10 (antibody, IgG4, V domains shown)
VH: QVQLVQSGAEVKKPGASVKVSCKASGYIFTSYTMHWVRQAPGQGLEWMGWIKPNNGSASYAQKFQGRVTMTRDTSTSTVYMELSSLRSEDTAVYYCARSEITTEEDYWGQGTLVTVSS
VL: EIVLTQSPGTLSLSPGERATLSCRASQSVDSYANSYLHWYQQKPGQAPRLLIYRGSTRESGIPDRFSGSGSGTDFTLTISRLEPEDFAVYYCQQSKSEPLTFGGGTKVEIK
